Publication doi:10.1101/630897
Results are given in words; binding and its absence hold for the method and conditions named. In cells and extracts the contact can be indirect. A yes stands for co-enrichment or nearness to the bait. Other partners may have been found. Sequences can lack the tags named with a protein. One block for each molecule: values may come before it.

Biological target: T1, CLOCK-HA (UniProt O08785)
T1 sequence: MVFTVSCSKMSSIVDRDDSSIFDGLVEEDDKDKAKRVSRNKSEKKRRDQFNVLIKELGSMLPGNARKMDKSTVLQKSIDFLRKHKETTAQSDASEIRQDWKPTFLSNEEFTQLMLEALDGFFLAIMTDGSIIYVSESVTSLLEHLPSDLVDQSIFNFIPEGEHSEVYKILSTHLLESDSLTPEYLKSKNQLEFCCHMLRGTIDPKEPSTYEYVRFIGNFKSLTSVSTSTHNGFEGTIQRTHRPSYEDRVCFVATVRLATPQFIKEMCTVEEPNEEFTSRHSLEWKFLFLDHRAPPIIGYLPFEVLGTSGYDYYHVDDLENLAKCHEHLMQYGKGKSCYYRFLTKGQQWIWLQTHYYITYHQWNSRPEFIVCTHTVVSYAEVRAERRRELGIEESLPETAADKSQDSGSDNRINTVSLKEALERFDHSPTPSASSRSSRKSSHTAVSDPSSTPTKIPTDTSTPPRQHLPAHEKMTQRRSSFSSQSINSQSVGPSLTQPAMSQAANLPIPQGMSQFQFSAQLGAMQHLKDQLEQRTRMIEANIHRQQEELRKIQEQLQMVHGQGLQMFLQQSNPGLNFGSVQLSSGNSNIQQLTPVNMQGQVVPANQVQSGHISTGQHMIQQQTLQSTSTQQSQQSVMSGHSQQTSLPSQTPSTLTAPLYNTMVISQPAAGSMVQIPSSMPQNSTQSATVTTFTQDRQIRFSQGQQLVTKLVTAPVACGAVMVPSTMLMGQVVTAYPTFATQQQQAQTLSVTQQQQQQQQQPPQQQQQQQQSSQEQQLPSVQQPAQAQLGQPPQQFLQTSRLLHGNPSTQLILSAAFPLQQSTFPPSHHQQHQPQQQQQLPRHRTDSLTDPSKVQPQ
Experiment: affinity purification with mass spectrometry

Molecule: CNOT1 (endogenous, mouse liver) (from UniProt Q6ZQ08 1-2375)
binding: binds

B1: ZBTB20 (protein, UniProt Q8K0L9 1-741)
chain: MLERKKPKTAENQKASEENEITQPGGSSAKPALPCLNFEAVLSPAPALIHSTHSLTNSHAHTGSSDCDISCKGMTERIHSINLHNFSNSVLETLNEQRNRGHFCDVTVRIHGSMLRAHRCVLAAGSPFFQDKLLLGYSDIEIPSVVSVQSVQKLIDFMYSGVLRVSQSEALQILTAASILQIKTVIDECTRIVSQNVGDVFPGIQDSGQDTPRGTPESGTSGQSSDTESGYLQSHPQHSVDRIYSALYACSMQNGSGERSFYSGAVVSHHETALGLPRDHHMEDPSWITRIHERSQQMERYLSTTPETTHCRKQPRPVRIQTLVGNIHIKQEMEDDYDYYGQQRVQILERNESEECTEDTDQAEGTESEPKGESFDSGVSSSIGTEPDSVEQQFGAAAPRDGQAEPAQPEQAAEAPAESSAQPNQLEPGASSPERSNESEMDNTVITVSNSSDKGVLQQPSVNTSIGQPLPSTQLYLRQTETLTSNLRMPLTLTSNTQVIGTAGNTYLPALFTTQPAGSGPKPFLFSLPQPLTGQQTQFVTVSQPGLSTFTAQLPAPQPLASSAGHSTASGQGDKKPYECTLCNKTFTAKQNYVKHMFVHTGEKPHQCSICWRSFSLKDYLIKHMVTHTGVRAYQCSICNKRFTQKSSLNVHMRLHRGEKSYECYICKKKFSHKTLLERHVALHSASNGTPPAGTPPGARAGPPGVVACTEGTTYVCSVCPAKFDQIEQFNDHMRMHVSDG
binding: binds

More lines, now with the values ahead:

binding: binds
Molecule: BMAL1 (endogenous, mouse liver) (from UniProt Q9WTL8 1-632)

binding: binds
Molecule: CNOT2 (from UniProt Q8C5L3 1-540)

binding: binds
B2: OGT (O-GlcNAc Transferase) (enzyme, UniProt Q8CGY8 1-1046)
chain: MASSVGNVADSTEPTKRMLSFQGLAELAHREYQAGDFEAAERHCMQLWRQEPDNTGVLLLLSSIHFQCRRLDRSAHFSTLAIKQNPLLAEAYSNLGNVYKERGQLQEAIEHYRHALRLKPDFIDGYINLAAALVAAGDMEGAVQAYVSALQYNPDLYCVRSDLGNLLKALGRLEEAKACYLKAIETQPNFAVAWSNLGCVFNAQGEIWLAIHHFEKAVTLDPNFLDAYINLGNVLKEARIFDRAVAAYLRALSLSPNHAVVHGNLACVYYEQGLIDLAIDTYRRAIELQPHFPDAYCNLANALKEKGSVAEAEDCYNTALRLCPTHADSLNNLANIKREQGNIEEAVRLYRKALEVFPEFAAAHSNLASVLQQQGKLQEALMHYKEAIRISPTFADAYSNMGNTLKEMQDVQGALQCYTRAIQINPAFADAHSNLASIHKDSGNIPEAIASYRTALKLKPDFPDAYCNLAHCLQIVCDWTDYDERMKKLVSIVAEQLEKNRLPSVHPHHSMLYPLSHGFRKAIAERHGNLCLDKINVLHKPPYEHPKDLKLSDGRLRVGYVSSDFGNHPTSHLMQSIPGMHNPDKFEVFCYALSPDDGTNFRVKVMAEANHFIDLSQIPCNGKAADRIHQDGIHILVNMNGYTKGARNELFALRPAPIQAMWLGYPGTSGALFMDYIITDQETSPAEVAEQYSEKLAYMPHTFFIGDHANMFPHLKKKAVIDFKSNGHIYDNRIVLNGIDLKAFLDSLPDVKIVKMKCPDGGDNPDSSNTALNMPVIPMNTIAEAVIEMINRGQIQITINGFSISNGLATTQINNKAATGEEVPRTIIVTTRSQYGLPEDAIVYCNFNQLYKIDPSTLQMWANILKRVPNSVLWLLRFPAVGEPNIQQYAQNMGLPQNRIIFSPVAPKEEHVRRGQLADVCLDTPLCNGHTTGMDVLWAGTPMVTMPGETLASRVAASQLTCLGCLELIAKSRQEYEDIAVKLGTDLEYLKKIRGKVWKQRISSPLFNTKQYTMELERLYLQMWEHYAAGNKPDHMIKPVEVTESA
